Among the data in publication PMC12025393, “Neuregulin-1 (NRG1) Binds to the Allosteric Binding Site (Site 2) and Suppresses Allosteric Integrin Activation by Inflammatory Cytokines: A Potential Mechanism of Anti-Inflammatory and Anti-Fibrosis Action of NRG1” (Cells, 2025) are binding values, retold here.

Sequences of proteins named here, by UniProt entry; tags and fusion partners are left off. A change or cut given only in a name is not applied to a line headed by its entry.
UniProt P08514: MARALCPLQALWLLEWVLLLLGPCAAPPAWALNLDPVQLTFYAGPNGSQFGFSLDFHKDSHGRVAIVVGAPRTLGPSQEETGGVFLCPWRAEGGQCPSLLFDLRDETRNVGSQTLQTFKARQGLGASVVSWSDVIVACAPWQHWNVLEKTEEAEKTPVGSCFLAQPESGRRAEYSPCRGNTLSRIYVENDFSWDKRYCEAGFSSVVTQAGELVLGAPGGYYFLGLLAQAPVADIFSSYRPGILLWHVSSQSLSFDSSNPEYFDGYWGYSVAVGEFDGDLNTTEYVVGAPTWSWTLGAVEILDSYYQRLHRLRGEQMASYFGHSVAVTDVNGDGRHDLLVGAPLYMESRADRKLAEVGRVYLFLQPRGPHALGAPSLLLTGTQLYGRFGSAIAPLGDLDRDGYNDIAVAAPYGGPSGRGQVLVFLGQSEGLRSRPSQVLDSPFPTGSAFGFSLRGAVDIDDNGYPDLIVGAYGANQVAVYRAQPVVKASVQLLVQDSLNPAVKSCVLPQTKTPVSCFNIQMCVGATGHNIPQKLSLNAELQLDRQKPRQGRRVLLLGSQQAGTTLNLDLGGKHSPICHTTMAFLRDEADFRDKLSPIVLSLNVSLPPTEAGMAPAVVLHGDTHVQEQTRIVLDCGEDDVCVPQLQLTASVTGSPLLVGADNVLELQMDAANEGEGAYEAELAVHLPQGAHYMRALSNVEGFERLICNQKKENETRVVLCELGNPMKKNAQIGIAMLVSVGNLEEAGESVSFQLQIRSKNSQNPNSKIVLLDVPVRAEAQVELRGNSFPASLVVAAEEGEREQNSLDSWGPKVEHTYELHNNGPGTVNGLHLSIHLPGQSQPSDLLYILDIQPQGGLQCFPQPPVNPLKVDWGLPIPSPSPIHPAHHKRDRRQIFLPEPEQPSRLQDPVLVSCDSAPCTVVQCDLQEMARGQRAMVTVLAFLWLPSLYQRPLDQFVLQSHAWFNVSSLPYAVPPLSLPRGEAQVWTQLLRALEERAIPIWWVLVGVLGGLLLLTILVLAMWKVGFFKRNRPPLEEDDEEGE

In one assay the target is T1, WT NRG1 EGF-like domain.
T1 construct: also called NRG1 EGF domain; neuregulin-1; source: endotoxin-free E. coli BL21 (DE3) pLysS Clear-coli, purified (Ni-NTA in 8M urea, re-folded)
T1 chain: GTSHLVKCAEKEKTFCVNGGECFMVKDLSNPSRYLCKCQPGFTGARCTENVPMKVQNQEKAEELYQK
Nature of the assay: ELISA; NRG1 (20 μg/mL in PBS) immobilised to wells, blocked with 0.1% BSA; peptides fused to GST in PBS/Tween20 (0.05%), 1 h at room temperature; HRP-conjugated anti-GST antibody; signals with scrambled β3 site 2 peptide subtracted; both purified. On the technique in general: In an ELISA, binding on a coated surface is turned into a signal by an enzyme label.

Assay [1] has as its target cell-surface integrin αIIbβ3 on CHO cells (UniProt P08514). The experiment in a line: flow cytometry on cells; αIIbβ3-CHO cells in HEPES-Tyrodes buffer/0.02% BSA with 1 mM Ca2+, chemokines (0.1 μg/mL) 30 min on ice with or without NRG1 3KE (20 μg/mL), then FITC-labeled γC390-411 (50 μg/mL) 60 min at room temperature; mean fluorescent intensity; only the binder purified. (In general: A flow cytometer gives signals particle by particle.)

These are yes or no findings as the source states them, for the method shown. Some binding calls cover weakened binding; strength is not graded here. Tags and fused reporters may be left off the sequences shown.

On to CKLGGIVLPNDGQSHLENNMYTMSHYYC (cyclic (disulfide between C268 and C295, as designed for the β3 peptide)) [28-mer cyclic β1 peptide fused to GST], for which the binding result with WT NRG1 EGF-like domain was “binds weakly”.

For NRLTIGEGQQHHLGGAKQAGDV (FITC label (site not stated)) [FITC-labeled γC390-411 fused to GST], in assay [1], the binding entry is listed as “binds”.
